Counter-ions that a name gives are not always drawn. ± gives the standard deviation of the averaged measurements. Some of the results follow. Most values come without repeats; read them as rough.
System: RAW 264.7
Assay: cell viability (MTT) relative to vehicle control; higher = more viable cells
Settings: stimulus: HMGB1 5 ug/ml, 18 h
[1] = compound concentration: 1 ug/ml

Compound: O=[N+]([O-])c1cc2nc(O)c(O)nc2cc1[N+](=O)[O-]
- cell viability (compound concentration: 3 uM): 111%

Compound: CC(C)NCC(O)c1cc(O)cc(O)c1 (stereo not given) [Metaproterenol hemisulfate]
- cell viability (compound concentration: 3 uM): 104%

Compound: CC(C)NCC(O)c1cc(O)cc(O)c1 (stereo not given) [Metaproterenol sulfate, orciprenaline sulfate]
- cell viability (compound concentration: 3 uM): 87.1%

Compound: CC(C)NCC(O)c1cc(O)cc(O)c1 (stereo not given)
- cell viability (compound concentration: 3 uM): 104%

Compound: Cc1cn(C2CC(O)C(COP(=O)(O)OP(=O)(O)OP(=O)(O)O)O2)c(=O)[nH]c1=O (stereo not given) [Thymidine 5'-triphosphate sodium salt]
- cell viability [1]: 106%

Compound: Cn1c(=O)c2c(ncn2CCO)n(C)c1=O [Etofylline]
- cell viability (compound concentration: 3 uM): 103%

Compound: O=C(CCCN1CCC(O)(c2cccc(C(F)(F)F)c2)CC1)c1ccc(F)cc1 [Trifluperidol hydrochloride]
- cell viability (compound concentration: 3 uM): 108%

Compound: O=C(CCCN1CCC(O)(c2cccc(C(F)(F)F)c2)CC1)c1ccc(F)cc1 [Trifluperidol]
- cell viability (compound concentration: 3 uM): 97.4%

Compound: Nc1ccn([C@H]2C[C@H](O)[C@@H](COP(=O)(O)O)O2)c(=O)n1 [2'-Deoxycytidine 5'-monophosphate]
- cell viability [1]: 96.1%

Compound: CN/C(=N\c1ccc(C2=NNC(=O)CC2C)cc1)NC#N (stereo not given) [Siguazodan]
- cell viability (compound concentration: 3 uM): 98.2%

Compound: COc1ccccc1N1CCN(CCCNc2cc(=O)n(C)c(=O)n2C)CC1 [Urapidil hydrochloride]
- cell viability (compound concentration: 3 uM): 110 ± 5.5%

Compound: COc1ccccc1N1CCN(CCCNc2cc(=O)n(C)c(=O)n2C)CC1
- cell viability (compound concentration: 3 uM): 102 ± 6.7%

Compound: CCN(CC)Cc1cc(Nc2ccnc3cc(Cl)ccc23)ccc1O [Amodiaquin dihydrochloride dihydrate]
- cell viability (compound concentration: 3 uM): 98.4%

Compound: CCN(CC)Cc1cc(Nc2ccnc3cc(Cl)ccc23)ccc1O
- cell viability (compound concentration: 3 uM): 95.8%

Compound: COCC(=O)O[C@]1(CCN(C)CCCc2nc3ccccc3[nH]2)CCc2cc(F)ccc2[C@@H]1C(C)C [Mibefradil dihydrochloride]
- cell viability (compound concentration: 3 uM): 105%

Compound: CCC(=O)OCC(=O)[C@@]1(OC(=O)CC)[C@@H](C)C[C@H]2[C@@H]3CCC4=CC(=O)C=C[C@]4(C)[C@@]3(Cl)[C@@H](O)C[C@@]21C
- cell viability (compound concentration: 3 uM): 112%

Compound: CCC(=O)OCC(=O)[C@@]1(OC(=O)CC)[C@@H](C)C[C@H]2[C@@H]3CCC4=CC(=O)C=C[C@]4(C)[C@@]3(Cl)[C@@H](O)C[C@@]21C [Beclomethasone dipropionate]
- cell viability (compound concentration: 3 uM): 87.2%

Compound: O=C(/C=C/C=C/c1ccc2c(c1)OCO2)N1CCCCC1
- cell viability (compound concentration: 3 uM): 99.6%

Compound: O=c1c2ccccc2nc2n1CCc1c-2[nH]c2ccccc12 [Rutaecarpine]
- cell viability (compound concentration: 3 uM): 97.5%

Compound: CCCCc1nc(Cl)c(CO)n1Cc1ccc(-c2ccccc2-c2nnn[nH]2)cc1 [Losartan potassium]
- cell viability (compound concentration: 3 uM): 99.8%

Compound: CCCCc1nc(Cl)c(CO)n1Cc1ccc(-c2ccccc2-c2nnn[nH]2)cc1 [LOSARTAN Potassium]
- cell viability (compound concentration: 3 uM): 100%

Compound: CCCCc1nc(Cl)c(CO)n1Cc1ccc(-c2ccccc2-c2nnn[nH]2)cc1 [Losartan]
- cell viability (compound concentration: 3 uM): 104%

Compound: CCCCc1nc(Cl)c(CO)n1Cc1ccc(-c2ccccc2-c2nnn[nH]2)cc1
- cell viability (compound concentration: 3 uM): 107%

Compound: CC1(C)S[C@@H]2[C@H](NC(=O)Cc3ccccc3)C(=O)N2[C@H]1C(=O)O
- cell viability (compound concentration: 3 uM): 108%

Compound: CC1(C)S[C@@H]2[C@H](NC(=O)Cc3ccccc3)C(=O)N2[C@H]1C(=O)O [Benzylpenicillin sodium]
- cell viability (compound concentration: 3 uM): 94.6%

Compound: CC1(C)S[C@@H]2[C@H](NC(=O)Cc3ccccc3)C(=O)N2[C@H]1C(=O)O [Benzathine benzylpenicillin]
- cell viability (compound concentration: 3 uM): 94.2%

Compound: C=CCCCCCCCCC(=O)O
- cell viability (compound concentration: 3 uM): 103%

Compound: COc1c(O)cc2oc3cc(O)c(CC=C(C)C)c(O)c3c(=O)c2c1CC=C(C)C [Mangostin]
- cell viability [1]: 98.5%

Compound: Clc1ccc(C(Cn2ccnc2)OCc2csc3c(Cl)cccc23)c(Cl)c1 (stereo not given) [Sertaconazole nitrate]
- cell viability (compound concentration: 3 uM): 92.3%

Compound: Clc1ccc(C(Cn2ccnc2)OCc2csc3c(Cl)cccc23)c(Cl)c1 (stereo not given) [Sertaconazole]
- cell viability (compound concentration: 3 uM): 120%

Compound: CCOc1ccc(NC(=O)CC(C)O)cc1 (stereo not given)
- cell viability (compound concentration: 3 uM): 103%

Compound: CC(C)(C)NCC(O)c1ccc(O)c(CO)c1 (racemic)
- cell viability (compound concentration: 3 uM): 100%

Compound: CC(=O)OCC1=C(C(=O)O)N2C(=O)[C@@H](NC(=O)Cc3cccs3)[C@H]2SC1 [Cephalothin sodium]
- cell viability (compound concentration: 3 uM): 102%

Compound: CC(=O)OCC1=C(C(=O)O)N2C(=O)[C@@H](NC(=O)Cc3cccs3)[C@H]2SC1 [Cephalothin sodium salt]
- cell viability (compound concentration: 3 uM): 106%

Compound: CC(=O)OCC1=C(C(=O)O)N2C(=O)[C@@H](NC(=O)Cc3cccs3)[C@H]2SC1
- cell viability (compound concentration: 3 uM): 106%

Compound: Cc1nc2n(c(=O)c1CCN1CCC(c3noc4cc(F)ccc34)CC1)CCCC2O (stereo not given) [Paliperidone]
- cell viability (compound concentration: 3 uM): 106%

Compound: CCN(CC)CCNC(=O)COc1ccc(OC)cc1
- cell viability (compound concentration: 3 uM): 113%

Compound: CCN(CC)CCNC(=O)COc1ccc(OC)cc1 [Mefexamide hydrochloride]
- cell viability (compound concentration: 3 uM): 104%

Compound: O=C1NCCN1CCN1CCC(c2cn(-c3ccc(F)cc3)c3ccc(Cl)cc23)CC1 [Sertindole]
- cell viability (compound concentration: 3 uM): 117%

Compound: CC1(C)CC[C@]2(C(=O)O)CC[C@]3(C)C(=CC[C@@H]4[C@@]5(C)CC[C@H](O)C(C)(C)[C@@H]5[C@H](O)C[C@]43C)[C@@H]2C1 [Sumaresinolic acid]
- cell viability [1]: 108%

Compound: O=C1CCC(N2C(=O)c3ccccc3C2=O)C(=O)N1 (stereo not given) [Thalidomide]
- cell viability (compound concentration: 3 uM): 94.6 ± 5.9%

Compound: O=C1CCC(N2C(=O)c3ccccc3C2=O)C(=O)N1 (stereo not given)
- cell viability (compound concentration: 3 uM): 97.8%

Compound: CNCCCN1c2ccccc2CCc2ccccc21
- cell viability (compound concentration: 3 uM): 95.7%

Compound: CNCCCN1c2ccccc2CCc2ccccc21 [Desipramine hydrochloride]
- cell viability (compound concentration: 3 uM): 97.8 ± 7.1%

Compound: Cc1ccsc1C(=CCCN1CCC[C@@H](C(=O)O)C1)c1sccc1C
- cell viability (compound concentration: 3 uM): 98.8%

Compound: CC[n+]1c(-c2ccccc2)c2cc(N)ccc2c2ccc(N)cc21
- cell viability (compound concentration: 3 uM): 103%

Compound: O=C1OC(CN2CCOCC2)CN1/N=C/c1ccc([N+](=O)[O-])o1 (stereo not given) [Furaltadone hydrochloride]
- cell viability (compound concentration: 3 uM): 124%

Compound: O=C1OC(CN2CCOCC2)CN1/N=C/c1ccc([N+](=O)[O-])o1 (stereo not given)
- cell viability (compound concentration: 3 uM): 108%

Compound: C[C@H]1[C@H](OC(=O)CCC(=O)O)O[C@@H]2O[C@@]3(C)CC[C@H]4[C@H](C)CC[C@@H]1[C@@]24OO3 [Artesunate]
- cell viability (compound concentration: 3 uM): 69.3%

Compound: C[C@H]1[C@H](OC(=O)CCC(=O)O)O[C@@H]2O[C@@]3(C)CC[C@H]4[C@H](C)CC[C@@H]1[C@@]24OO3
- cell viability (compound concentration: 3 uM): 73.6%
